The list shows a part of the results.

By UniProt entry, the sequences of proteins in these tests, tags left out. Where a name states a change or a piece, a line headed by the entry shows the natural chain unless it says otherwise.
UniProt P27449, whole entry, looked up: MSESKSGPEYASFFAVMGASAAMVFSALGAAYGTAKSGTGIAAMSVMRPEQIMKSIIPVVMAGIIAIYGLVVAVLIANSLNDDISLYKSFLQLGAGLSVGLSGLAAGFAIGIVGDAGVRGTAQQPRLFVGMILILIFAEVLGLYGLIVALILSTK
UniProt Q6P4H8: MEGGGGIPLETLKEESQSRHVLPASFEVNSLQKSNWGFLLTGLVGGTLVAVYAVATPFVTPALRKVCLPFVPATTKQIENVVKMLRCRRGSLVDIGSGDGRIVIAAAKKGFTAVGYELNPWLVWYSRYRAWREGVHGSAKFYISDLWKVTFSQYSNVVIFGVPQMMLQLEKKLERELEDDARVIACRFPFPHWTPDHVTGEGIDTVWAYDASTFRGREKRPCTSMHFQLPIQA
UniProt P14415, whole entry, looked up: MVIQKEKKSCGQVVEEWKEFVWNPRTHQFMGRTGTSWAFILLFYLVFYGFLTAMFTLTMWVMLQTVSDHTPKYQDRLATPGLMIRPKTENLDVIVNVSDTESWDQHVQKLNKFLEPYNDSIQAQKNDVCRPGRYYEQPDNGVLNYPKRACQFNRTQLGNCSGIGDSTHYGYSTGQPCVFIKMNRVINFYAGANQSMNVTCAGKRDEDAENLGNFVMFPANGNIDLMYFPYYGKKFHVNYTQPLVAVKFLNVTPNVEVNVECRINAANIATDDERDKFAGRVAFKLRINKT
UniProt Q6UWY0: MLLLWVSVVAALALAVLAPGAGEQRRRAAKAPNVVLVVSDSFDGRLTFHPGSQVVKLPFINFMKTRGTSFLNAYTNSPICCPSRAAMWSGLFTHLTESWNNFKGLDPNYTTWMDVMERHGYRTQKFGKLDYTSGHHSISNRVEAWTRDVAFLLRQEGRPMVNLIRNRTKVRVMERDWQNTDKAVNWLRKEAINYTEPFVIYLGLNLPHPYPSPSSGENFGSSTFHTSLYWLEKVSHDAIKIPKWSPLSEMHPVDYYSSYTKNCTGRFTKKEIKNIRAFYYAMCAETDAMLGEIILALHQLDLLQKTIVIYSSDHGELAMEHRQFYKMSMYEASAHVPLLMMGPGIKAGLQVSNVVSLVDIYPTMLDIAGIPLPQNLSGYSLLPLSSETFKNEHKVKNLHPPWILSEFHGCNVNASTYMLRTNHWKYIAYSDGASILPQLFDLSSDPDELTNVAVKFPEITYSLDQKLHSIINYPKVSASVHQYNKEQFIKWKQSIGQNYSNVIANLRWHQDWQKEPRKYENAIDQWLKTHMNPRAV
UniProt Q9NWX5: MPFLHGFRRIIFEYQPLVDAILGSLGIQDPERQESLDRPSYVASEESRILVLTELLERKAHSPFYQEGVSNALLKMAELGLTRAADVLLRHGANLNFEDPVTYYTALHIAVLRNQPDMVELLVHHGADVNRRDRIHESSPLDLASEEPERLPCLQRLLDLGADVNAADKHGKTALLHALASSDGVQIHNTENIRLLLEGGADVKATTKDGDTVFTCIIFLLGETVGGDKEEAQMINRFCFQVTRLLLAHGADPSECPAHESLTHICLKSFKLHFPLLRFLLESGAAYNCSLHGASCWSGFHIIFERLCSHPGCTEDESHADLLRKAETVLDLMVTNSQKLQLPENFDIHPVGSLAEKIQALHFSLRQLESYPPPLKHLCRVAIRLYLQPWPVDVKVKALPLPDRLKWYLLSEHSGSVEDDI
UniProt Q96KC2: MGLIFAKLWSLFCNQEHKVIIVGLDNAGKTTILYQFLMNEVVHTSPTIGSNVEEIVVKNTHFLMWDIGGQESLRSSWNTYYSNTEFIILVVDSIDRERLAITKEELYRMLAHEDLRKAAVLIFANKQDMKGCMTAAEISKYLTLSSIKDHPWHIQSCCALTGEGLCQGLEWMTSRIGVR
UniProt P15289: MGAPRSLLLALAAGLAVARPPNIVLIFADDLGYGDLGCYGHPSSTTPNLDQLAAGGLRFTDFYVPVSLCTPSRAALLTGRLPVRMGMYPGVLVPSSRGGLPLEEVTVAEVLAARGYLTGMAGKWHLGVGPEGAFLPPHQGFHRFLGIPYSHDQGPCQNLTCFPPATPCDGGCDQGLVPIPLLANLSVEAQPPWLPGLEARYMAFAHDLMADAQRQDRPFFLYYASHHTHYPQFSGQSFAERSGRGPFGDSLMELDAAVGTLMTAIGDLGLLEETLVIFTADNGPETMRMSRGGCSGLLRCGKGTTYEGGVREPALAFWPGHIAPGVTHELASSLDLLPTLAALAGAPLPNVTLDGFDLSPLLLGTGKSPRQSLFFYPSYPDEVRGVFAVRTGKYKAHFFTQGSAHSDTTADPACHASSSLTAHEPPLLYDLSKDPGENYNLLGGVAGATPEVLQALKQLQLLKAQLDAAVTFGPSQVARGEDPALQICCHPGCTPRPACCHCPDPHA
UniProt Q8N5I2: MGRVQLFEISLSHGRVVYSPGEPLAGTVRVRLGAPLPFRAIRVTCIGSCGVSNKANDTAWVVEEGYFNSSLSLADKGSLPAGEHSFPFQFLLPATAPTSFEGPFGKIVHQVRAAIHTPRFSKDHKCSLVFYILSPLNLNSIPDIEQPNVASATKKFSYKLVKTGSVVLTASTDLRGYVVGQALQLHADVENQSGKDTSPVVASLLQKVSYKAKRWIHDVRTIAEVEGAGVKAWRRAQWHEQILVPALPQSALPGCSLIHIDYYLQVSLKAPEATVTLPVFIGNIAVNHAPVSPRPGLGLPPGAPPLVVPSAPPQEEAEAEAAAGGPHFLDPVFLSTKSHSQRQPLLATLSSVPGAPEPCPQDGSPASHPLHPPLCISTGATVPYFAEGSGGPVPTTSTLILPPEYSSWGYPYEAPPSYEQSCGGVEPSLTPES
UniProt Q9Y689: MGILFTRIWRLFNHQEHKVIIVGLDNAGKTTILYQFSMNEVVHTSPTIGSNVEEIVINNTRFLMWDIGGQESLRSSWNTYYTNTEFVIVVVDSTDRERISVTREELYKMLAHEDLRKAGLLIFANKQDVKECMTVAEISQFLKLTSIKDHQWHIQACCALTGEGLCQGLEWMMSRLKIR
UniProt P17544: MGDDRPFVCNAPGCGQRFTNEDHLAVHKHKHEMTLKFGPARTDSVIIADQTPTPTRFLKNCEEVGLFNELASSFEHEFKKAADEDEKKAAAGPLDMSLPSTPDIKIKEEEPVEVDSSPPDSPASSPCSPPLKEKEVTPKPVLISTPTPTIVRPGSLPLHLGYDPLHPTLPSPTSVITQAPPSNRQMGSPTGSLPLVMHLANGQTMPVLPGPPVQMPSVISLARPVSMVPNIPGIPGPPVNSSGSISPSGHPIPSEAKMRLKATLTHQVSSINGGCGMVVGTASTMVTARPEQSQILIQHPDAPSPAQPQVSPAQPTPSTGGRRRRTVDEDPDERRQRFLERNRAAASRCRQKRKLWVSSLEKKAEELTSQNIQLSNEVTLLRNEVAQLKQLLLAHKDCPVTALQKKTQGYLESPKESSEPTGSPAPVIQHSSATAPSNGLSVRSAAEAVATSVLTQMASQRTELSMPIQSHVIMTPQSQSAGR
UniProt P00966: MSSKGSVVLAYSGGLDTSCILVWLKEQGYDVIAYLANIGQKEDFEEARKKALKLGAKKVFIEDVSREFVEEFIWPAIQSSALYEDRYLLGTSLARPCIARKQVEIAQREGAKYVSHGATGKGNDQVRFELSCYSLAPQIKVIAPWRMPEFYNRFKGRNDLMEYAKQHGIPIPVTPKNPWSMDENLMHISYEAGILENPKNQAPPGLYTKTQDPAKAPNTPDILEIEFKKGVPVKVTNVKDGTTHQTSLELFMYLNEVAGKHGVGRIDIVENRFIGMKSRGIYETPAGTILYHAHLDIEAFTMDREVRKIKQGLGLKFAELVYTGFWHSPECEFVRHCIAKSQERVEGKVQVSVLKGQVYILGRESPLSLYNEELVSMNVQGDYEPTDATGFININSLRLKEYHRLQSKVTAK
UniProt Q9H1I8: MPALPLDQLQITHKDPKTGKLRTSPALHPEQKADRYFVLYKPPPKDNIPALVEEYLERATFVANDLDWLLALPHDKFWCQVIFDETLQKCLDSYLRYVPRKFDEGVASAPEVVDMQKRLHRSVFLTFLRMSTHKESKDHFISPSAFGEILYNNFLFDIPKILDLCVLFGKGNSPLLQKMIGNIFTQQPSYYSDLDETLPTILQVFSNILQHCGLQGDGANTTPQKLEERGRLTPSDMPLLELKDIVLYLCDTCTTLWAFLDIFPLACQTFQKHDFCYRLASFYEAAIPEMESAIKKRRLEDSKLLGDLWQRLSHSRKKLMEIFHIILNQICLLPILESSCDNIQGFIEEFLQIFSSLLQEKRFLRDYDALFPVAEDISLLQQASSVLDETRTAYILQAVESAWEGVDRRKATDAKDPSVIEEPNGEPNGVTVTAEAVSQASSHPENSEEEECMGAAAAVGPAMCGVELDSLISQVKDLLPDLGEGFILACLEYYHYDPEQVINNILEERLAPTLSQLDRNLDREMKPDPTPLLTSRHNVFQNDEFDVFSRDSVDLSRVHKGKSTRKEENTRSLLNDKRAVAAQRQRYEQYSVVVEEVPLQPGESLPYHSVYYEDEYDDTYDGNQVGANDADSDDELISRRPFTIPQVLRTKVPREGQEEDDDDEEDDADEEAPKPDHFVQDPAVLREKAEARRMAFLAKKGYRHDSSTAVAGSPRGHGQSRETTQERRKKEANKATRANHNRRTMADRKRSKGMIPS
UniProt P98194: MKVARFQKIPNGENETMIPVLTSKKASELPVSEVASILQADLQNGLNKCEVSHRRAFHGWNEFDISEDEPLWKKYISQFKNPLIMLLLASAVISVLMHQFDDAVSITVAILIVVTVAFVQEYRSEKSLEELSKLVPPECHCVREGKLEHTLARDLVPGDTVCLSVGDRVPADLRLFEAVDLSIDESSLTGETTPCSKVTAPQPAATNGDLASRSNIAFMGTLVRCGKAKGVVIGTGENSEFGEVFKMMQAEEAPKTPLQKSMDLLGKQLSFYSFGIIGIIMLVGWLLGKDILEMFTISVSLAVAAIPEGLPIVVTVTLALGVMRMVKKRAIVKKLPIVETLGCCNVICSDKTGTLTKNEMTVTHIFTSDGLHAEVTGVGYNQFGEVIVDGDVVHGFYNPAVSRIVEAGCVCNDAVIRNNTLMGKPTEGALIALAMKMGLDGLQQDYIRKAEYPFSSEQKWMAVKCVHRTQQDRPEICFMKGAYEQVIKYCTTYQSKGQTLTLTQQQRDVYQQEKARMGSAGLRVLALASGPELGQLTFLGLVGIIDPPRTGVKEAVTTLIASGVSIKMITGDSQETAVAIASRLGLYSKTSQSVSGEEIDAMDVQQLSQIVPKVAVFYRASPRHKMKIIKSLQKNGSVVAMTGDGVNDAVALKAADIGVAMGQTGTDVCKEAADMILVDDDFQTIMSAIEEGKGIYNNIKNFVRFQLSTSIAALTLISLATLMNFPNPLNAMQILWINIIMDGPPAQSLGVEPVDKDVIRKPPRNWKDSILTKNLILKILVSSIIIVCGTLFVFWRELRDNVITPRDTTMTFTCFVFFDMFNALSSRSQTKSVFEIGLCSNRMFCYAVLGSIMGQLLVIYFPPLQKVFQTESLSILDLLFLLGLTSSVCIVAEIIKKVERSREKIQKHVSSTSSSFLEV
UniProt O94817, whole entry, looked up: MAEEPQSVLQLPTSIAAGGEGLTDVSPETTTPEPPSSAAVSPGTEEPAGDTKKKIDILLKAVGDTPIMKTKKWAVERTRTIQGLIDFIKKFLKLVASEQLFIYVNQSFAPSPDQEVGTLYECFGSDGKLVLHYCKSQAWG
UniProt P49407: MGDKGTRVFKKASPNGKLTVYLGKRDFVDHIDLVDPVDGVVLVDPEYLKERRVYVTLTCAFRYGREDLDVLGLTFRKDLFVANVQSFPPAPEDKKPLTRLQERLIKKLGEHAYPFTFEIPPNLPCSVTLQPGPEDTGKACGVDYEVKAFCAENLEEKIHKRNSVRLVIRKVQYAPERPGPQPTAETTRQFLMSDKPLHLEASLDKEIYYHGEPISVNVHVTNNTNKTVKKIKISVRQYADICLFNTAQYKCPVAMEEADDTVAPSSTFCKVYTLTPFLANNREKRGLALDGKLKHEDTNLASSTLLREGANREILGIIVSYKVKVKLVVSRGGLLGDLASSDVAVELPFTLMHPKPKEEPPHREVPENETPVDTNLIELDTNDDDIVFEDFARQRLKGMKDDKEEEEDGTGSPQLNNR
UniProt Q9NVP2, whole entry, looked up: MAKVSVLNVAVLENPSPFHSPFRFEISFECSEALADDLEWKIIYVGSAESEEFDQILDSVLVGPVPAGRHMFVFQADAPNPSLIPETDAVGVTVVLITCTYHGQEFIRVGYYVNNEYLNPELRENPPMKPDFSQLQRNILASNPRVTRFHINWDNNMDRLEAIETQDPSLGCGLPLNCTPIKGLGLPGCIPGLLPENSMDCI
UniProt P18846: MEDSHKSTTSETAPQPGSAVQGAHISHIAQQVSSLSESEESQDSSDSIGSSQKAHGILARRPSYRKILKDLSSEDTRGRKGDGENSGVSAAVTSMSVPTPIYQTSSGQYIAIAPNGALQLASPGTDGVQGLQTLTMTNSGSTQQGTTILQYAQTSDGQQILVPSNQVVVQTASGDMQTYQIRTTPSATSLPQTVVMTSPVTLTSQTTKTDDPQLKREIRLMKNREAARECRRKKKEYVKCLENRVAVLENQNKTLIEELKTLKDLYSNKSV

Compound in the assay: CCCc1cc(C)[nH]c(=O)c1CNC(=O)c1cc(-c2ccnc(N3CCN(C)CC3)c2)cc2c1cnn2C(C)C
Put plainly: log2 fold change, soluble protein after heating vs DMSO (PISA); higher = thermal stabilisation; K562 cells, 10 uM, 30 min; active = over 0.2 and 3.5 SD of the protein, either way, in both replicates (recomputed). The method, boiled down: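 K562 cells at 2×10^6 cells/mL were exposed to 10 μM compound for 30 min, then aliquots were heated for 3 min across 48°C-58°C, pooled, and extracted in PBS containing 0.5% NP-40 at 4°C. The supernatant after 21,000xg for 90 min was taken as soluble protein and measured by TMTpro 16plex LC-MS/MS with channel sums equalised. Thermal stability is reported relative to control samples, with values from duplicates. Fold changes are given on a log2 scale.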
Take ATP6V0C (UniProt P27449): the log2 fold change is inactive: 0.098. Turning to ATPSCKMT (UniProt Q6P4H8), the log2 fold change is inactive: -0.073. In the case of ATP1B2 (UniProt P14415) it was inactive: -0.1; in that of ARSK (UniProt Q6UWY0), inactive: -0.039. On to ATL2 (UniProt Q8NHH9), for which the log2 fold change was inactive: -0.104.

Consider ASB6 (UniProt Q9NWX5), for which the log2 fold change is inactive: -0.039. As for ARL5B (UniProt Q96KC2), the log2 fold change was inactive: -0.003. In the case of ARPIN isoform 2 (UniProt Q7Z6K5), the log2 fold change was inactive: 0.

In the case of ARSA (UniProt P15289), the log2 fold change is inactive: -0.124.

ASXL1 (UniProt Q8IXJ9): the log2 fold change was inactive: 0.095.

On to ARRDC1 (UniProt Q8N5I2), for which the log2 fold change is inactive: 0.023.

As for ARL5A (UniProt Q9Y689), the log2 fold change was inactive: -0.069. As to ATF7 isoform 6 (UniProt P17544), the log2 fold change was inactive: -0.032. As to ATF7IP isoform 4 (UniProt Q6VMQ6), the log2 fold change was inactive: 0.053. In the case of ATP1B1 (UniProt P05026) it was inactive: -0.264; in that of ASS1 (UniProt P00966), inactive: 0.004. Turning to ARL4A (UniProt P40617), the log2 fold change was inactive: 0.078. ASCC2 (UniProt Q9H1I8): the log2 fold change is inactive: 0.073. On to ATP2C1 isoform 3 (UniProt P98194), for which the log2 fold change is inactive: 0.095. In the case of ATG12 (UniProt O94817), the log2 fold change is inactive: 0.059. As to ATP5F1B (UniProt F8W0P7), the log2 fold change is inactive: 0.036. Turning to ARRB1 isoform 2 (UniProt P49407), the log2 fold change was inactive: 0.004.

For the target ASF1B (UniProt Q9NVP2), the log2 fold change was inactive: -0.222. For the target ARL13B (UniProt Q3SXY8), the log2 fold change was inactive: -0.033. For the target ATF1 (UniProt P18846), the log2 fold change was inactive: 0.002.

Source of the values: the supplement of paper PMC10849652.
